What all share (assay): log2 fold change, soluble protein after heating vs DMSO (PISA); higher = thermal stabilisation; K562 lysate, 10 uM; active = over 0.2 and 3.5 SD of the protein, either way, in both replicates (recomputed)
Compound in test [1]: CS(=O)(=O)CCNCc1ccc(-c2ccc3ncnc(Nc4ccc(OCc5cccc(F)c5)c(Cl)c4)c3c2)o1 [lapatinib]
A digest of the protocol:
(§1)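 Following dounce homogenisation of K562 pellets in PBS pH 7.4 with 1 mM MgCl2, crude extract at 1 mg/mL protein was incubated for 30 min with 10 μM compound. Aliquots were then heated for 3 min over 48°C-58°C and pooled, NP-40 was added to 0.5% at 4°C, and soluble protein was recovered as the supernatant at 21,000xg for 90 min. Channel-sum-equalised TMTpro 16plex LC-MS/MS quantified this protein. Each value, from duplicates, is a log-two fold change in thermal stability relative to solvent controls.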

Chains of the proteins cited; added tags and fusions are not shown. Lines headed by an entry give the natural chain unless they say otherwise; changes in a name come on top.
UniProt Q96K19: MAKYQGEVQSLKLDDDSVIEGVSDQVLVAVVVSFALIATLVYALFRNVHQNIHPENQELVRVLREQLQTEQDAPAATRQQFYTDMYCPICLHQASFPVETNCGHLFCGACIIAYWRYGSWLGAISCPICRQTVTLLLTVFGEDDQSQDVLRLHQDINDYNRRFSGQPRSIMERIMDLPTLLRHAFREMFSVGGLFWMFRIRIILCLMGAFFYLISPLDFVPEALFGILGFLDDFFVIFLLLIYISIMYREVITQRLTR
UniProt Q9H871: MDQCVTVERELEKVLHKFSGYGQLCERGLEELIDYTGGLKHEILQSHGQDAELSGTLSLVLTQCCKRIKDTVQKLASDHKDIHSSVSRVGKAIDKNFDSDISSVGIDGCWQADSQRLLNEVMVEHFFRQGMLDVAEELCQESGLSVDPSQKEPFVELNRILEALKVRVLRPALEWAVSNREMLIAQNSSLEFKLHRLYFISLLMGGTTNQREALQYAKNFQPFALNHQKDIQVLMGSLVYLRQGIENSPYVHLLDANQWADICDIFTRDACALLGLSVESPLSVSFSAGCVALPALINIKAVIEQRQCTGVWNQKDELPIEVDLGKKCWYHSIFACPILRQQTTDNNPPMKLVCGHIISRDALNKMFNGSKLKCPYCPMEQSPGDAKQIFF
UniProt O00584, whole entry, looked up: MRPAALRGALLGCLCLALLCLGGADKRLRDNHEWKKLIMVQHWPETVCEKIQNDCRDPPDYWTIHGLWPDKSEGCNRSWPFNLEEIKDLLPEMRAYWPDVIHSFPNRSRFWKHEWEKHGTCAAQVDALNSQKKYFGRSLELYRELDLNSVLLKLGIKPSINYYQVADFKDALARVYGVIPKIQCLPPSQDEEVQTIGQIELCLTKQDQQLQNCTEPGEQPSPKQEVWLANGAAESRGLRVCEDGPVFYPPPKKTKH
UniProt P35244: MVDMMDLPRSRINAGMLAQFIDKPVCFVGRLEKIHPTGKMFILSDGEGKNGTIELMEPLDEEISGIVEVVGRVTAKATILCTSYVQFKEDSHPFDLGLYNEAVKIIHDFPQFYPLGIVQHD
UniProt Q9BQY4: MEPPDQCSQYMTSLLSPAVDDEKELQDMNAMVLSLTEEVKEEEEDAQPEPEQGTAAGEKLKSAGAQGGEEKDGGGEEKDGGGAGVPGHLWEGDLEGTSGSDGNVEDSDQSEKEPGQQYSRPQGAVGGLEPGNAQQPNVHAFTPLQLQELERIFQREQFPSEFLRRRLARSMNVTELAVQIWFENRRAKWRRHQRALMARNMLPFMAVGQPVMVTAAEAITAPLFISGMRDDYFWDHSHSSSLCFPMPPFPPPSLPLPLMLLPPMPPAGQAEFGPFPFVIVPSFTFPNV
UniProt P13489: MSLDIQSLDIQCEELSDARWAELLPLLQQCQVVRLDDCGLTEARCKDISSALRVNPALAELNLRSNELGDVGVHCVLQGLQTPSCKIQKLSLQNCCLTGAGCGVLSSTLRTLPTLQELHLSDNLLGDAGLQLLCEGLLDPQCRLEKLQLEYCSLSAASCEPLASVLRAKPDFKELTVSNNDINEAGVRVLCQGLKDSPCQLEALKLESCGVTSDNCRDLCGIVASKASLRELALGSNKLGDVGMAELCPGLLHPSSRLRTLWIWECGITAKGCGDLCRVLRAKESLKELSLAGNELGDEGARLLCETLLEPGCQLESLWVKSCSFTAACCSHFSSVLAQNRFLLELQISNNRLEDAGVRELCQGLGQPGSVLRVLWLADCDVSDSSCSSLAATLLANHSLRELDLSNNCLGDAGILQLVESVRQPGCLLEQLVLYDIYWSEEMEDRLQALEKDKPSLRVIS
UniProt Q6ZS17: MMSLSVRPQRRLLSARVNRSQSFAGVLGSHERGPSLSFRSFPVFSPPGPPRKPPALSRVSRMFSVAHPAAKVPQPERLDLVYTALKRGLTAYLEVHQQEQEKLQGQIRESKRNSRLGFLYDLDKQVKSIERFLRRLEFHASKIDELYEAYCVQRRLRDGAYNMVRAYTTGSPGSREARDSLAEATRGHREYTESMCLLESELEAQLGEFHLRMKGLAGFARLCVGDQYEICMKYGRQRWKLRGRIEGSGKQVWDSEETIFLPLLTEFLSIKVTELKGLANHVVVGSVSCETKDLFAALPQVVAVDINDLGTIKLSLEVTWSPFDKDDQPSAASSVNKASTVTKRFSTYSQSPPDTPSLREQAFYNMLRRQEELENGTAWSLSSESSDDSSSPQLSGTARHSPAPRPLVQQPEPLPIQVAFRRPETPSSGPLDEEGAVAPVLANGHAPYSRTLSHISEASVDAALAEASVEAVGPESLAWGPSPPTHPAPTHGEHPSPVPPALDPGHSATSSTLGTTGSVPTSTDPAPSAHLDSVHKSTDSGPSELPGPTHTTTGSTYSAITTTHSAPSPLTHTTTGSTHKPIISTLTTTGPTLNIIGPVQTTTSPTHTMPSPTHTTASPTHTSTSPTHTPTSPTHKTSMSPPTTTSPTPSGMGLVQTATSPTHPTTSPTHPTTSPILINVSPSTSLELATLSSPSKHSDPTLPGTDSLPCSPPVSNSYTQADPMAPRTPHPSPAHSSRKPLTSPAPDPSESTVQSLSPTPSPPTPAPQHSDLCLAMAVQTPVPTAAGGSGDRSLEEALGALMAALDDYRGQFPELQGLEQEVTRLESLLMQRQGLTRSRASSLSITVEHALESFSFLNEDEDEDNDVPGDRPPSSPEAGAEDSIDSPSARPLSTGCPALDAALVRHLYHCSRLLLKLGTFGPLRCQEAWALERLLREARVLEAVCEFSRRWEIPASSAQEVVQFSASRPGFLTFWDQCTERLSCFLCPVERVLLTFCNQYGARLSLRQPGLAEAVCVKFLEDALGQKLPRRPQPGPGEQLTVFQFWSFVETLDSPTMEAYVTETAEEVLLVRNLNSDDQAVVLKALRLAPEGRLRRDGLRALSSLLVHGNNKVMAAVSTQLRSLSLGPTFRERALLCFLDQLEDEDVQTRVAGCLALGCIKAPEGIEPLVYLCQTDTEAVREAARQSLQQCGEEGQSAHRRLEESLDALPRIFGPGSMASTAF
UniProt Q9H9Y2: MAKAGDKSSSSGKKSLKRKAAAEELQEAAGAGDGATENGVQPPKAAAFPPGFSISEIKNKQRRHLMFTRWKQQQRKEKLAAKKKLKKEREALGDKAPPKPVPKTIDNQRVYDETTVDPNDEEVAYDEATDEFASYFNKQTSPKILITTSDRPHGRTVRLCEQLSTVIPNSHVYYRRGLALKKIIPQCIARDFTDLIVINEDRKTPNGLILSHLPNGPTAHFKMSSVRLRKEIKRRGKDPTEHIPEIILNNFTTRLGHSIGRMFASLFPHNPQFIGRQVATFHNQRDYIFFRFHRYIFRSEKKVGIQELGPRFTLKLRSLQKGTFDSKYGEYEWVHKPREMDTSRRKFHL
UniProt Q9BV68: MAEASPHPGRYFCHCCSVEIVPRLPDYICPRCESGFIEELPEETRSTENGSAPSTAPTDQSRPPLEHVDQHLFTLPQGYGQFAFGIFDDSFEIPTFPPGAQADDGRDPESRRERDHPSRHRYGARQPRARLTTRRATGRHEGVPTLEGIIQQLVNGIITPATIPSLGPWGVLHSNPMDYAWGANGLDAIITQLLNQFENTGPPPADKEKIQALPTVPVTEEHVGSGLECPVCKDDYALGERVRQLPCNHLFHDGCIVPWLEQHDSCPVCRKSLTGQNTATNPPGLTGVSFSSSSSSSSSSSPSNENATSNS
UniProt Q6ZS11: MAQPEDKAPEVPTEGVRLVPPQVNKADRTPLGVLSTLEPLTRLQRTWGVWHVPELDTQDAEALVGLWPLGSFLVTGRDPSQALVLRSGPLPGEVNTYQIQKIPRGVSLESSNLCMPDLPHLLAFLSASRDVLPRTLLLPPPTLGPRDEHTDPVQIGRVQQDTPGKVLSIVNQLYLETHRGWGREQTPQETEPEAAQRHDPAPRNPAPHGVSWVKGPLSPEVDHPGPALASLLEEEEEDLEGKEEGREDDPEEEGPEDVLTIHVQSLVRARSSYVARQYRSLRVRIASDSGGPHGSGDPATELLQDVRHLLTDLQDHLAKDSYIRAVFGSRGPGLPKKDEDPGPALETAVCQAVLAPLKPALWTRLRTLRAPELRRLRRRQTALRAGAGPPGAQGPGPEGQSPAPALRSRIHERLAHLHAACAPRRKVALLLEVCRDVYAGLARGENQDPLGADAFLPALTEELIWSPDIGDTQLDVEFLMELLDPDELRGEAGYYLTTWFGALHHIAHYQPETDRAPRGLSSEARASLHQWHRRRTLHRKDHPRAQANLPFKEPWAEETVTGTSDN
UniProt Q969X0: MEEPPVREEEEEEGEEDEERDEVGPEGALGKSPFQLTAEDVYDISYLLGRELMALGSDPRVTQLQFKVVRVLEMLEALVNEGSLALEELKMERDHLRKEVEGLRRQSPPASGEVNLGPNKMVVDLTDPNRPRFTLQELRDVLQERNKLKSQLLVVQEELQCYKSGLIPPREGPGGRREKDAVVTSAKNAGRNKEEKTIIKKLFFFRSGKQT
UniProt Q8IUC4: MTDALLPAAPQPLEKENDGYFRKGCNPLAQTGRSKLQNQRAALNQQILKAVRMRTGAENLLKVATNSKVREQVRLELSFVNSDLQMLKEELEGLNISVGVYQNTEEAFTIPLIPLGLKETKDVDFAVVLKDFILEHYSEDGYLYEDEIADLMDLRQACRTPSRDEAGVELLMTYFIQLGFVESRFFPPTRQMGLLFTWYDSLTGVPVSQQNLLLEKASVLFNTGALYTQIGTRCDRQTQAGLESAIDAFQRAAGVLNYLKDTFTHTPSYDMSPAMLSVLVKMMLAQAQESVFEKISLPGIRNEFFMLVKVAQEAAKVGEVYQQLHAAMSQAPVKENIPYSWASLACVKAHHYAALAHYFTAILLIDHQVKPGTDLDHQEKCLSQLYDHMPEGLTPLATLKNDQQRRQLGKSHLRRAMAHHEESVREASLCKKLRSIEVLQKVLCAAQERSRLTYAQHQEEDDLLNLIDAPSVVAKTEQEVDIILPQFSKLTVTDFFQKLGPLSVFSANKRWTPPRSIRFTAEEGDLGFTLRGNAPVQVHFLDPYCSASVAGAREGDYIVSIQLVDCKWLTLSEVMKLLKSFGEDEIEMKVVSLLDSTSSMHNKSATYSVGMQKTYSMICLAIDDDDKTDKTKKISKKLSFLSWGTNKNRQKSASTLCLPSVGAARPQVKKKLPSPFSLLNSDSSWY
UniProt Q5TA31: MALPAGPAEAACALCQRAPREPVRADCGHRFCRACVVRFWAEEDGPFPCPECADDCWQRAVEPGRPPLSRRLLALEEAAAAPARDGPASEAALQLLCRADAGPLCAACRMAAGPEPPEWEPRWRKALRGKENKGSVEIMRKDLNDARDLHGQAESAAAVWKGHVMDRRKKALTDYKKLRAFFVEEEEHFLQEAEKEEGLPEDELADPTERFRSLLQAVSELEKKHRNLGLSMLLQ
UniProt Q5M7Z0: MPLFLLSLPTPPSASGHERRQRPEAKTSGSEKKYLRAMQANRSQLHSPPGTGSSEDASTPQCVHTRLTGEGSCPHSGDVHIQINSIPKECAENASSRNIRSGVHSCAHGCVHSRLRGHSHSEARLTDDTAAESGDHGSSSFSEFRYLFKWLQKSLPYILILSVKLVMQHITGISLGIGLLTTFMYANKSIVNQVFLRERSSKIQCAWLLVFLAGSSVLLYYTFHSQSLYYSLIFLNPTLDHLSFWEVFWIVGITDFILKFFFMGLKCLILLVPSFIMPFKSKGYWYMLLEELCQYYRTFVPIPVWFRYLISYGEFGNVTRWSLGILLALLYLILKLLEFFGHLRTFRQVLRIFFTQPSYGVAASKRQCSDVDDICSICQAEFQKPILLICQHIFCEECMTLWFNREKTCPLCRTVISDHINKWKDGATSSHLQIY

Compound in test [2]: CS(=O)(=O)N1CCN(Cc2cc3nc(-c4cccc5[nH]ncc45)nc(N4CCOCC4)c3s2)CC1 [pictilisib]
A digest of the protocol: as §1

Compound in test [3]: C[C@@H](Oc1cc(-c2cnn(C3CCNCC3)c2)cnc1N)c1c(Cl)ccc(F)c1Cl [crizotinib]
A digest of the protocol:
as §1

Compound in test [4]: C[C@H](C1=CC=C(C=C1)C(=O)NC2=C3C=CNC3=NC=C2)N
A digest of the protocol: as §1

Compound in test [5]: C[C@H](Nc1ncnc2nc[nH]c12)c1cc2cccc(Cl)c2c(=O)n1-c1ccccc1 [duvelisib]
In short, it runs like this: as §1

Compound in test [6]: Cc1cc(Nc2cc(CN3CCOCC3)c3nc(C)c(Cc4ccc(Cl)cc4F)n3n2)n[nH]1 [gandotinib]
In short, it runs like this:
as §1

Compound in test [7]: Cc1cc(Nc2cc(N3CCN(C)CC3)nc(Sc3ccc(NC(=O)C4CC4)cc3)n2)n[nH]1 [tozasertib]
In short, it runs like this: as §1

Compound in test [8]: Cc1ccc(-n2nc(C(C)(C)C)cc2NC(=O)Nc2ccc(OCCN3CCOCC3)c3ccccc23)cc1 [doramapimod]
In short, it runs like this:
as §1

Compound in test [9]: Cc1ccc(NC(=O)c2ccc(CN3CC[C@H](N(C)C)C3)c(C(F)(F)F)c2)cc1Nc1nccc(-c2cncnc2)n1 [bafetinib]
A digest of the protocol:
as §1

Compound in test [10]: Cc1cccc(CC(=O)N2CCc3c2ccc(-c2cn(C)c4ncnc(N)c24)c3F)n1
A digest of the protocol: as §1

The other results are listed elsewhere or left out.

As to RPL26 (UniProt P61254), the log2 fold change in [1] was inactive: 0.029; in test [2] it was inactive: -0.006; in [3], inactive: 0.112; in test [4] it was inactive: 0.343; in [5] it was inactive: -0.029; in test [6] it was inactive: -0.3. For the same target, the log2 fold change in test [7] is inactive: 0.01; in test [8] it was inactive: -0.089; in [9] it was inactive: 0.08; in test [10] it was inactive: -0.351.

Consider RNF170 (UniProt Q96K19), for which the log2 fold change in test [1] was inactive: -0.011; in test [2], inactive: -0.332; in test [4] it was inactive: -0.042; in test [5], inactive: -0.229; in test [6] it was inactive: -0.198; in [9], inactive: 0.024. Also, the log2 fold change in test [10] was active: 1.2.

As for RMND5A (UniProt Q9H871), the log2 fold change is inactive: -0.022 in test [1]; inactive: 0.002 in test [2]; inactive: -0.093 in [3]; inactive: -0.1 in test [4]; inactive: 0.007 in test [5]; inactive: 0.022 in test [6]. Moreover, the log2 fold change in test [7] is inactive: 0.056; in [8], inactive: 0.063; in test [9], inactive: -0.034; in test [10], inactive: 0.08.

For RNASET2 (UniProt O00584), the log2 fold change is inactive: 0.005 in test [1]; inactive: -0.033 in [2]; inactive: 0.003 in [3]; inactive: -0.02 in test [4]; inactive: 0.02 in [5]; inactive: 0.022 in [6]. The log2 fold change in test [7] is inactive: -0.013; in test [8] it was inactive: -0.034; in test [9], inactive: 0.039; in test [10], inactive: -0.021.

Take RPA3 (UniProt P35244): the log2 fold change in test [1] is inactive: 0.07; in [2] it was inactive: 0.016; in test [3], inactive: 0.018; in [4], inactive: 0.039; in test [5] it was inactive: 0; in [6], inactive: -0.066. Further, the log2 fold change in test [7] was inactive: -0.008; in [8], inactive: 0.016; in test [9], inactive: 0.037; in [10], inactive: -0.07.

Turning to RPL36 (UniProt Q9Y3U8), the log2 fold change is inactive: -0.022 in test [1]; inactive: -0.003 in test [2]; inactive: -0.026 in test [3]; inactive: -0.107 in [4]; inactive: 0.013 in [5]; inactive: 0.023 in test [6]. Also, the log2 fold change is inactive: -0.073 in test [7], inactive: 0.013 in test [8], inactive: -0.005 in test [9] and inactive: 0.045 in [10].

As to RHOXF2 (UniProt Q9BQY4), the log2 fold change in [1] is inactive: 0.045; in test [2], inactive: 0.05; in test [3] it was inactive: 0.007; in test [4] it was inactive: -0.029; in test [5] it was inactive: 0.013; in test [6], inactive: 0. Besides, the log2 fold change in [7] is inactive: 0.011; in [8] it was inactive: -0.081; in test [9] it was inactive: -0.028; in test [10] it was inactive: 0.091.

Turning to RPL23 (UniProt P62829), the log2 fold change was inactive: 0.017 in test [1]; inactive: 0.008 in test [2]; inactive: -0.011 in test [3]; inactive: -0.013 in [4]; inactive: 0.028 in [5]; inactive: -0.003 in test [6]. Moreover, the log2 fold change was inactive: -0.022 in [7], inactive: -0.012 in test [8], inactive: 0.015 in test [9] and inactive: 0.007 in [10].

RNH1 (UniProt P13489): the log2 fold change in [1] is inactive: -0.023; in [2], inactive: -0.025; in [3], inactive: -0.032; in test [4], inactive: -0.119; in test [5], inactive: -0.031; in [6] it was inactive: -0.007. Also, the log2 fold change in test [7] is inactive: -0.007; in [8] it was inactive: 0.087; in test [9] it was inactive: 0.027; in test [10], inactive: 0.049.

For the target RIPOR1 isoform 4 (UniProt Q6ZS17), the log2 fold change is inactive: 0.034 in test [1]; inactive: -0.071 in test [2]; inactive: -0.063 in [3]; inactive: -0.012 in test [4]; inactive: 0.01 in [5]; inactive: -0.105 in test [6]. Besides, the log2 fold change was inactive: -0.061 in [7], inactive: 0.07 in test [8], inactive: -0.048 in test [9] and inactive: 0.017 in test [10].

For the target RPF1 (UniProt Q9H9Y2), the log2 fold change was inactive: 0.017 in test [1]; inactive: -0.403 in test [2]; inactive: 0.014 in [3]; inactive: -0.038 in test [8]; inactive: 0 in [9].

Regarding RNF126 (UniProt Q9BV68), the log2 fold change in test [1] is inactive: 0.053; in test [2], inactive: 0.025; in test [3], inactive: -0.071; in test [4], inactive: -0.056; in test [5], inactive: 0.069; in test [6] it was inactive: -0.073. Besides, the log2 fold change in test [7] is inactive: 0.116; in test [8] it was inactive: -0.202; in test [9], inactive: -0.101; in test [10], inactive: 0.144.

Take RINL (UniProt Q6ZS11): the log2 fold change is inactive: -0.1 in test [1]; inactive: 0.065 in [2]; inactive: -0.145 in [4]; inactive: -0.123 in test [5]; inactive: -0.218 in test [6]; inactive: 0.325 in [7]. For the same target, the log2 fold change in test [9] is inactive: -0.009; in test [10] it was inactive: 0.096.

For RILPL2 (UniProt Q969X0), the log2 fold change was inactive: 0.048 in test [1]; inactive: 0.027 in [2]; inactive: -0.072 in test [3]; inactive: -0.133 in test [4]; inactive: 0.021 in test [6]; inactive: 0.124 in test [8]. The log2 fold change in [9] is inactive: -0.129; in test [10] it was inactive: 0.089.

RHPN2 (UniProt Q8IUC4): the log2 fold change in test [1] was inactive: -0.055; in test [3], inactive: -0.066; in [7], inactive: -0.154; in test [8], inactive: 0.059.

On to RNF187 (UniProt Q5TA31), for which the log2 fold change in test [2] is inactive: 0.01; in test [3] it was inactive: -0.006; in test [4] it was inactive: -0.046; in [5] it was inactive: -0.021; in test [6] it was inactive: 0.08; in test [7], inactive: 0.035. The log2 fold change is inactive: -0.044 in test [8], inactive: -0.013 in [9] and inactive: 0.019 in test [10].

Take RNFT1 (UniProt Q5M7Z0): the log2 fold change in test [4] is inactive: -0.442; in test [5], inactive: 0.17; in test [6] it was inactive: -0.166; in [7], inactive: 0.101; in test [10], inactive: 0.218.

Source of the values: the supplement of paper PMC10849652.
